From patent publication US20090155345A1, “METHODS FOR AFFECTING LIPOSOME COMPOSITION ULTRASOUND IRRADIATION” (BEN GURION UNIVERSITY OF THE NEGEV RESEARCH AND DEVELOPMENT …, priority 2005, published 2009)
Where a name gives a salt, the structure may show the parent alone. At least one compound was matched to its structure with a doubt left.

Assay: Chemical integrity of LFUS-irradiated drugs and lipids (HPLC, NMR, TLC)
Assay type: physicochemical
Conditions: 20 kHz, 3.3 W/cm^2, 30 to 180 s; HPLC (doxorubicin, MPS), NMR (cisplatin)

C[C@H]1C[C@@H]2[C@H]([C@@H](O)C[C@@]3(C)[C@H]2CC[C@]3(O)C(=O)COC(=O)CCC(=O)O)[C@@]2(C)C=CC(=O)C=C12 [MPS, Methylprednisolone hemisuccinate sodium salt]
chemical changes of drug after LFUS: does not induce any chemical changes
